PMC5425128, “Functional human GRIN2B promoter polymorphism and variation of mental processing speed in older adults”
The exact form of at least one protein or probe is not confirmed. The comparison behind a weaker result is the experiment's own reference, which may not be listed here. Protein sequences can lack the tags named with them.

Biological target: T1, Elk-1 (human) (UniProt P19419)
T1 sequence (looked up, limits assumed): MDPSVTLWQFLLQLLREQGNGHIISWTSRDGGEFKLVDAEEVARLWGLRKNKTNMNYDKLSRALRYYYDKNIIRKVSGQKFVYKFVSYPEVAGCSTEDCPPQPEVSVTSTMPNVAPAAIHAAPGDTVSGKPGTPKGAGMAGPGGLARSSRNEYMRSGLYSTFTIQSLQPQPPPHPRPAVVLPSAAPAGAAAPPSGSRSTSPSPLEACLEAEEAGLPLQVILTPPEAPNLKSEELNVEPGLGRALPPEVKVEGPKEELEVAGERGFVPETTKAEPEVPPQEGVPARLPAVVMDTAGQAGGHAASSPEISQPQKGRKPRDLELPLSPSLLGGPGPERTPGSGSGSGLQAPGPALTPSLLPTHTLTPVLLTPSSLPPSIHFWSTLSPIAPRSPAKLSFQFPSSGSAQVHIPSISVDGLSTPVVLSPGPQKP
Experiment: EMSA
Details: 1 ug Elk-1, 10 mM MgCl2, no poly(dI-dC), 50 mM HEPES pH 7.5, 10 mM MgCl2, 5% glycerol, 1 mM DTT, 0.3% BSA, 1 mM EDTA, 1 h on ice, 6% gel (HEPES buffer pH 6.3), commercial protein

“CATCTCCGGGGGACACGCGAA (double strand) [GRIN2B G allele (rs3764030 G)]”: binds more weakly.
